Source: patent US20260209348A1
Substitutions are numbered along the chain they refer to. These are yes or no findings as the source states them, for the method shown. Some results given as binding are weak or reduced against the parent protein; the word gives no strength. Each block holds one binder with its values, some of them ahead of it.

Sequences of proteins named here, by UniProt entry; tags and fusion partners are left off. A change or cut given only in a name is not applied to a line headed by its entry.
UniProt Q01974: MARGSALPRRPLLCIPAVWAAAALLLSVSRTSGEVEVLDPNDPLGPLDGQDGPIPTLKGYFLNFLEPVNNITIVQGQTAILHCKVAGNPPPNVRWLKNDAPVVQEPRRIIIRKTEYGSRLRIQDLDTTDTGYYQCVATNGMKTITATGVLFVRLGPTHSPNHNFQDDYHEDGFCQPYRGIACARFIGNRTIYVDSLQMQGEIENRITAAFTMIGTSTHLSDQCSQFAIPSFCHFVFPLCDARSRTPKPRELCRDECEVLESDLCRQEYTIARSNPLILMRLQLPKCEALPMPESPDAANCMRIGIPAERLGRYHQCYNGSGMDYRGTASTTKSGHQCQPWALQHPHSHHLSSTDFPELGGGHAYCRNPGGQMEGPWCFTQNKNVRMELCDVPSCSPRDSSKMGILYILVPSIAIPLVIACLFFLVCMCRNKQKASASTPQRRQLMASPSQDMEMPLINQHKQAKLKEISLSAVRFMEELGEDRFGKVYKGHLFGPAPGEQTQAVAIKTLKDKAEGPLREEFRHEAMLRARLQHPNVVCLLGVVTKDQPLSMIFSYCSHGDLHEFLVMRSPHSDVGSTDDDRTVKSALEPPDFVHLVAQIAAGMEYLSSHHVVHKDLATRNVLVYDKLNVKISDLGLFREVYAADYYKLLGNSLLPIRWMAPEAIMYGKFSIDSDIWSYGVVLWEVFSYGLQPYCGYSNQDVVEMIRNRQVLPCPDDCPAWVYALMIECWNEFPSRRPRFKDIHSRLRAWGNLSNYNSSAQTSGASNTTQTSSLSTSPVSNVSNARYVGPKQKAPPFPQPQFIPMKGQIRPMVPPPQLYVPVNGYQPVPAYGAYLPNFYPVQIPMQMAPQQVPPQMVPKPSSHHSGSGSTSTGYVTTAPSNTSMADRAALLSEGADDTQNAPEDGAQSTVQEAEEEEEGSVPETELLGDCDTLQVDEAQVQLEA

Target: human ROR2 (human) (UniProt Q01974)
Assay: ELISA, scFv clones

binding: binds
B3: h6E6-016 scFv clone (scFv, V domains shown)
VH: EVQLVESGGGLVKPGGSLRLSCAASGFTFSAYGMSWVRQAPGKGLEWVSTISSGGGYTHYATSVKGRFTISRDNAKNSLYLQMNSLRAEDTAVYYCARHPRDFSYAQDYWGQGTTVTVSS
VL: EIVMTQSPATLSVSPGERATLSCKASQDVGHYVAWYQQKPGQAPRLLIYWASTRHTGIPARFSGSGSGTEFTLTISSLQSEDFAVYYCQQYNIYPWTFGQGTKVEIK

binding: binds
B7: h6E6-005 scFv clone (scFv, V domains shown)
VH: B3 VH with A31G, M34L, T62A, Q107M
VL: B3 VL with H55A

binding: binds
B13: h6E6-037 scFv clone (scFv, V domains shown)
VH: B3 VH
VL: B3 VL with V33L, H55A

binding: binds
B16: h6E6-034 scFv clone (scFv, V domains shown)
VH: B3 VH with A31S, A61V, T62H, Q107M
VL: B3 VL with Q6P, H55A

binding: binds
B18: h6E6-036 scFv clone (scFv, V domains shown)
VH: B3 VH with M34H, T62D
VL: B3 VL with V33L

binding: binds
B19: h6E6-047 scFv clone (scFv, V domains shown)
VH: B3 VH with A31K, L45P, Q107L
VL: B3 VL with K24R, H55A

binding: binds
B25: h6E6-043 scFv clone (scFv, V domains shown)
VH: B3 VH with A31S, M34T, Q107M
VL: B3 VL with V33L, H55A

binding: binds
B26: h6E6-013 scFv clone (scFv, V domains shown)
VH: B3 VH with A31K, M34I, T62A
VL: B3 VL with V33L, H55A

binding: binds
B27: h6E6-031 scFv clone (scFv, V domains shown)
VH: B3 VH with A31S, T62E, A75D, Q107I
VL: B3 VL with K24R

binding: binds
B28: h6E6-046 scFv clone (scFv, V domains shown)
VH: B3 VH with A31R, M34I, Q107M
VL: B3 VL

binding: binds
B29: h6E6-045 scFv clone (scFv, V domains shown)
VH: B3 VH with A31G, A61V, T62Q, Q107M
VL: B3 VL with H55A

binding: binds
B30: h6E6-029 scFv clone (scFv, V domains shown)
VH: B3 VH with A31H, M34V, T62Q
VL: B3 VL

binding: binds
B31: h6E6-017 scFv clone (scFv, V domains shown)
VH: B3 VH with A31R, T50S, T62E, Q107M
VL: B3 VL with V33L

binding: binds
B32: h6E6-041 scFv clone (scFv, V domains shown)
VH: B3 VH with A31G, M34V, T62P
VL: B3 VL with H55A

binding: binds
B37: h6E6-038 scFv clone (scFv, V domains shown)
VH: B3 VH with A31R, T62P, L86P
VL: B3 VL with V33L

binding: binds
B45: h6E6-019 scFv clone (scFv, V domains shown)
VH: B3 VH with A31R, M34V, T62A
VL: B3 VL with H55A

Further lines, the binder ahead of its results:

B1: h6E6-001 scFv clone (scFv, V domains shown)
VH: B3 VH with A31K, M34I, T62D, Q107L
VL: B3 VL with H55A
binding: binds

B2: h6E6-009 scFv clone (scFv, V domains shown)
VH: B3 VH with A31G, S35N, T62E, Q107A
VL: B3 VL with V33L, H55A
binding: binds

B4: h6E6-008 scFv clone (scFv, V domains shown)
VH: B3 VH with A31Q, M34T, T50S, T62E, Q107F
VL: B3 VL with H55A
binding: binds

B5: h6E6-015 scFv clone (scFv, V domains shown)
VH: B3 VH with A31N, M34L, A61V, Q107L
VL: B3 VL
binding: binds

B6: h6E6-028 scFv clone (scFv, V domains shown)
VH: B3 VH with A31P, A61V, T62Q, Q107L
VL: B3 VL with H55A
binding: binds

B8: h6E6-032 scFv clone (scFv, V domains shown)
VH: B3 VH with A31N, M34T, T62E, Q107M
VL: B3 VL with V33L, H55A
binding: binds

B9: h6E6-021 scFv clone (scFv, V domains shown)
VH: B3 VH with A31S, A61V, T62A, Q107L
VL: B3 VL with V33L, H55A
binding: binds

B10: h6E6-042 scFv clone (scFv, V domains shown)
VH: B3 VH with A31G, M34L, A61V, T62E, Q107S
VL: B3 VL with K24R, H55A
binding: binds

B11: h6E6-027 scFv clone (scFv, V domains shown)
VH: B3 VH with A31T, M34L, A61V, T62D, Q107M
VL: B3 VL with H55A
binding: binds

B12: h6E6-020 scFv clone (scFv, V domains shown)
VH: B3 VH with A31K, M34V, T62P, Q107M
VL: B3 VL with V33L, H55A
binding: binds

B14: h6E6-018 scFv clone (scFv, V domains shown)
VH: B3 VH with A31G, M34V, T62D, Q107L
VL: B3 VL with K24R, V33L, H55A
binding: binds

B15: h6E6-039 scFv clone (scFv, V domains shown)
VH: B3 VH with A31N, M34Q, T62D, Q107V
VL: B3 VL
binding: binds

B17: h6E6-022 scFv clone (scFv, V domains shown)
VH: B3 VH with A31K, M34T, T62P, Q107M
VL: B3 VL with H55A
binding: binds

B20: h6E6-040 scFv clone (scFv, V domains shown)
VH: B3 VH with A31S, M34H, T62P, Q107H
VL: B3 VL with K24R, H55A
binding: binds

B21: h6E6-025 scFv clone (scFv, V domains shown)
VH: B3 VH with A31H, M34H, A61V, T62E, Q107M
VL: B3 VL with K24R, H55A
binding: binds

B22: h6E6-033 scFv clone (scFv, V domains shown)
VH: B3 VH with A31T, A61V, Q107M
VL: B3 VL
binding: binds

B23: h6E6-012 scFv clone (scFv, V domains shown)
VH: B3 VH with M34A, T50S, A61V, T62E
VL: B3 VL with K24R, V33L, H55A
binding: binds

B24: h6E6-026 scFv clone (scFv, V domains shown)
VH: B3 VH with A31R, T62A, Q107M
VL: B3 VL
binding: binds

B33: h6E6-004 scFv clone (scFv, V domains shown)
VH: B3 VH with A31G, T62A, Q107F
VL: B3 VL with V33L, H55A
binding: binds

B34: h6E6-002 scFv clone (scFv, V domains shown)
VH: B3 VH with A31S, M34I, T62E, Q107M
VL: B3 VL with K24R, V33L
binding: binds

B35: h6E6-006 scFv clone (scFv, V domains shown)
VH: B3 VH with A31T, Q107H
VL: B3 VL with K24R, V33L, H55A
binding: binds

B36: h6E6-035 scFv clone (scFv, V domains shown)
VH: B3 VH with A31S, M34I, T62D, Q107H
VL: B3 VL
binding: binds

B38: h6E6-011 scFv clone (scFv, V domains shown)
VH: B3 VH with A31G, Q107M
VL: B3 VL with V33L, H55A
binding: binds

B39: h6E6-014 scFv clone (scFv, V domains shown)
VH: B3 VH with A31S, S35N, A61V, T62D, Q107T
VL: B3 VL with K24R
binding: binds

B40: h6E6-030 scFv clone (scFv, V domains shown)
VH: B3 VH with A31S, T62A, Q107M
VL: B3 VL with V33L, H55A
binding: binds

B41: h6E6-010 scFv clone (scFv, V domains shown)
VH: B3 VH with A31N, A61V, T62A, Q107M
VL: B3 VL with V33L, H55A
binding: binds

B42: h6E6-023 scFv clone (scFv, V domains shown)
VH: B3 VH with A31S, T62P, Q107L
VL: B3 VL with V33L, H55A
binding: binds

B43: h6E6-024 scFv clone (scFv, V domains shown)
VH: B3 VH with A31E, A61V, T62E, Q107M
VL: B3 VL with K24R, H55A
binding: binds

B44: h6E6-007 scFv clone (scFv, V domains shown)
VH: B3 VH with A31G, M34L, T62P
VL: B3 VL with H55A
binding: binds

B46: h6E6-044 scFv clone (scFv, V domains shown)
VH: B3 VH with A31T, M34S, T62Q, Q107L
VL: B3 VL
binding: binds

B47: h6E6-003 scFv clone (scFv, V domains shown)
VH: B3 VH with A31Q, M34T, T62E, Q107H
VL: B3 VL with K24R, V33L
binding: binds
